Assay results as given in the supplement of paper PMC4604168 (melanoma cell lines).
The other results are listed elsewhere or left out. Single values are uncertain, as repeats are few or missing.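 Cells were imaged in 1,536-well plates, and nuclei stained with an antibody against cleaved PARP were counted against all DNA-stained nuclei to give the apoptosis fraction. Screening doses were chosen to leave most cells alive, and resting and induced cleaved-PARP levels differ strongly between cell lines.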

Experiments:
Experiment in all cases: cleaved PARP positive nuclei fraction relative to DMSO control; melanoma cells; higher = more apoptosis
Settings in all cases: library dose: low library concentration; 72 h
[1] = tested on: CBRC034 (line from a melanoma biopsy)
[2] = tested on: COLO792
[3] = tested on: COLO800
[4] = tested on: COLO829
[5] = tested on: G361
[6] = tested on: IPC-298
[7] = tested on: IST-MEL1
[8] = tested on: LB2518-MEL
[9] = tested on: LOXIMVI
[10] = tested on: MZ2-MEL
[11] = tested on: MeWo
[12] = tested on: RPMI7951
[13] = tested on: RVH-421
[14] = tested on: SkMel28
[15] = tested on: SkMel30
[16] = tested on: SkMel5
[17] = tested on: UACC257
[18] = tested on: UACC62

| SMILES | cleaved PARP positive nuclei fraction [1] [%] | cleaved PARP positive nuclei fraction [2] [%] | cleaved PARP positive nuclei fraction [3] [%] | cleaved PARP positive nuclei fraction [4] [%] | cleaved PARP positive nuclei fraction [5] [%] | cleaved PARP positive nuclei fraction [6] [%] | cleaved PARP positive nuclei fraction [7] [%] | cleaved PARP positive nuclei fraction [8] [%] | cleaved PARP positive nuclei fraction [9] [%] | cleaved PARP positive nuclei fraction [10] [%] | cleaved PARP positive nuclei fraction [11] [%] | cleaved PARP positive nuclei fraction [12] [%] | cleaved PARP positive nuclei fraction [13] [%] | cleaved PARP positive nuclei fraction [14] [%] | cleaved PARP positive nuclei fraction [15] [%] | cleaved PARP positive nuclei fraction [16] [%] | cleaved PARP positive nuclei fraction [17] [%] | cleaved PARP positive nuclei fraction [18] [%] |
| --- | --- | --- | --- | --- | --- | --- | --- | --- | --- | --- | --- | --- | --- | --- | --- | --- | --- | --- |
| COc1ccc2c(c1)CCC1C2CCC2(C)C(NCCCCCCN3C(=O)C=CC3=O)CCC12 (configuration not stated) + Cn1cc(/C=C2\C(=O)Nc3cccnc32)c2ccccc21 [GW441756] (first compound 0.4 µM, partner dose 0.4 µM) | 47.7 | 93.8 | 70.7 | 82.9 | 86.3 | 54.2 | 71.6 | 85.3 | 135 | 147 | 153 | 119 | 64.1 | 89.2 | 47.1 | 176 | 119 | 200 |
| COc1ccc(-c2ccc3c(N4CCOCC4)nc(N4C[C@@H](C)O[C@@H](C)C4)nc3n2)cc1CO + O=C(O)C(=O)Nc1sc2c(c1C(=O)O)CCNC2 [TCS401] (first compound 0.02 µM, partner dose 1.66667 µM) | 41.5 | 157 | 58.3 | 79.9 | 57.4 | 86.3 | 83.5 | 155 | 70.2 | 47.7 | 43.9 | 101 | 172 | 145 | 53.1 | 136 | 130 | 178 |
| O=S(=O)(c1ccccc1)N(CC(F)(F)F)c1ccc(C(O)(C(F)(F)F)C(F)(F)F)cc1 + O=C(O)C(=O)Nc1sc2c(c1C(=O)O)CCNC2 [TCS401] (first compound 1.4 µM, partner dose 1.66667 µM) | 90.4 | 213 | 93.6 | 63.6 | 52.1 | 181 | 45 | 184 | 939 | 110 | 60.4 | 34.7 | 55.6 | 135 | 14.4 | 70.6 | 62.2 | 155 |
| Oc1cc(-c2nc(-c3ccccc3)[nH]c2-c2ccncc2)ccc1Cl + CCCCCCCCCCCC1=C(O)C(=O)C=C(O)C1=O [Embelin] (first compound 0.2 µM, partner dose 1.2 µM) | 46.2 | 77.4 | 143 | 108 | 46.9 | 202 | 61.6 | 165 | 65.4 | 15.5 | 93.3 | 84.1 | 94 | 59.6 | 36.2 | 54.6 | 24.6 | 31 |
| CCN(CC)CCCCNc1ncc2cc(-c3cc(OC)cc(OC)c3)c(NC(=O)NC(C)(C)C)nc2n1 + CCCCCCCCCCCC1=C(O)C(=O)C=C(O)C1=O [Embelin] (first compound 0.1 µM, partner dose 1.2 µM) | 381 | 88.2 | 165 | 84.4 | 92.5 | 112 | 88.5 | 92 | 28.1 | 69.2 | 75.4 | 86 | 96.1 | 173 | 81.7 | 58.5 | 101 | 57.1 |
| CCc1ccc(CCOc2ccc(CC3SC(=O)NC3=O)cc2)nc1 (configuration not stated) [pioglitazone] + c1cc(-c2cnn3cc(-c4ccc(OCCN5CCCCC5)cc4)cnc23)ccn1 [Dorsomorphin] (first compound 2 µM, partner dose 0.4 µM) | 73.9 | 256 | 49.5 | 84.8 | 94.3 | 86.4 | 21.6 | 225 | 93.7 | 174 | 25.6 | 88 | 222 | 196 | 38 | 33.1 | 117 | 147 |
| CCc1ccc(CCOc2ccc(CC3SC(=O)NC3=O)cc2)nc1 (configuration not stated) [pioglitazone] + O=C(Nc1ccccc1)c1cc([N+](=O)[O-])ccc1Cl [GW9662] (first compound 2 µM, partner dose 2 µM) | 44 | 52.8 | 294 | 90 | 93.1 | 109 | 109 | 100 | 25.6 | 121 | 52.5 | 74.7 | 97.6 | 139 | 93 | 19.2 | 107 | 47.7 |
| CN(NC(=O)CC(=O)NN(C)C(=S)c1ccccc1)C(=S)c1ccccc1 + O=C(O)C(=O)Nc1sc2c(c1C(=O)O)CCNC2 [TCS401] (first compound 0.006 µM, partner dose 1.66667 µM) | 141 | 86.8 | 314 | 156 | 124 | 127 | 51 | 85.4 | 54.9 | 66.6 | 154 | 36.6 | 96.4 | 83.6 | 64.9 | 223 | 66.4 | 145 |
| O=C(Nc1ccccc1)c1cc([N+](=O)[O-])ccc1Cl + Oc1nc(-c2ccc(C(F)(F)F)cc2)nc2c1CSCC2 [XAV939] (first compound 2 µM, partner dose 2 µM) | 83 | 73.3 | 58.2 | 87.6 | 120 | 54.2 | 41.2 | 83.5 | 58.8 | 102 | 126 | 123 | 93.8 | 103 | 245 | 161 | 67.1 | 41.9 |
